Experimental data: PubChem BioAssay AID686938 (Drosophila RNAi Screening Center, 2013)
Assay: 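Fly genes required for calcium entry once internal stores are emptied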 (primary screen). Cells: Drosophila S2R+ cells. Reagents: long dsRNA against Drosophila genes, about 0.25 µg dsRNA per well, roughly 10,000 cells. Duration: 5 days of knock-down before the calcium assay. Challenge: thapsigargin (SERCA pump blocker) to empty calcium stores; entry signal taken 4 min after adding it. Detection: 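Per-well fluo-4 fluorescence in two replicates, unnormalised, measured in resting cells and 4 min after store depletion by the SERCA blocker thapsigargin; ratio of the two present in few wells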. Direction: calcium entry signal: higher = stronger calcium signal after store depletion; entry to resting ratio: higher = more calcium entry relative to resting level; resting calcium signal: higher = higher resting calcium signal. Units: calcium entry signal in fluorescence units; resting calcium signal in fluorescence units. Rule for the call: 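Called when the plate z-score of the entry-to-rest ratio, mean of duplicates, falls below −3; wells with low overall dye signal (Fmax z below −2) or more than five off-targets excluded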. Meaning of the calls: active = strongly reduced calcium entry; inactive = no strong reduction.
In all, the deposit lists about 23,000 reagents; shown is an unselected part of those with a known target gene and a result. Over the whole deposit, 75 (0.33%) got an active call. 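Raw plate signals without normalisation; calls rest on plate z-scores that were not deposited; ratio present for only 364 wells.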 A number with no mark means an inactive call. The numbers tell different reagents against one gene apart. Not given: the dose of the treatment.

{"gene":"CG31717","reagent":1,"calcium entry signal, replicate 1":3.33e7,"calcium entry signal, replicate 2":4.90e7,"resting calcium signal, replicate 1":1.73e7,"resting calcium signal, replicate 2":2.38e7}
{"gene":"Trhn","reagent":1,"calcium entry signal, replicate 1":2.42e7,"calcium entry signal, replicate 2":1.94e7,"resting calcium signal, replicate 1":1.16e7,"resting calcium signal, replicate 2":9.96e6}
{"gene":"dlp","reagent":1,"calcium entry signal, replicate 1":3.64e7,"calcium entry signal, replicate 2":2.27e7,"resting calcium signal, replicate 1":2.92e7,"resting calcium signal, replicate 2":1.58e7}
{"gene":"dlp","reagent":2,"calcium entry signal, replicate 1":4.25e7,"calcium entry signal, replicate 2":5.49e7,"resting calcium signal, replicate 1":1.82e7,"resting calcium signal, replicate 2":2.33e7}
{"gene":"CG13728","reagent":1,"calcium entry signal, replicate 1":3.97e7,"calcium entry signal, replicate 2":4.60e7,"resting calcium signal, replicate 1":1.68e7,"resting calcium signal, replicate 2":1.94e7}
{"gene":"CG13228","reagent":1,"calcium entry signal, replicate 1":1.97e7,"calcium entry signal, replicate 2":3.61e7,"resting calcium signal, replicate 1":9.10e6,"resting calcium signal, replicate 2":1.43e7}
{"gene":"CG14535","reagent":1,"calcium entry signal, replicate 1":2.74e7,"calcium entry signal, replicate 2":3.30e7,"resting calcium signal, replicate 1":1.17e7,"resting calcium signal, replicate 2":1.46e7}
{"gene":"CG13293","reagent":1,"calcium entry signal, replicate 1":2.62e7,"calcium entry signal, replicate 2":4.82e7,"resting calcium signal, replicate 1":1.18e7,"resting calcium signal, replicate 2":1.93e7}
{"gene":"MED25","reagent":1,"calcium entry signal, replicate 1":2.33e7,"calcium entry signal, replicate 2":2.41e7,"resting calcium signal, replicate 1":1.55e7,"resting calcium signal, replicate 2":1.34e7}
{"gene":"MED25","reagent":2,"calcium entry signal, replicate 1":7.73e7,"calcium entry signal, replicate 2":1.56e7,"resting calcium signal, replicate 1":3.27e7,"resting calcium signal, replicate 2":7.56e6}
{"gene":"ERR","reagent":1,"calcium entry signal, replicate 1":4.81e7,"calcium entry signal, replicate 2":4.34e7,"resting calcium signal, replicate 1":2.98e7,"resting calcium signal, replicate 2":2.00e7}
{"gene":"NaCP60E","reagent":1,"calcium entry signal, replicate 1":2.75e7,"resting calcium signal, replicate 1":1.30e7}
{"gene":"NaCP60E","reagent":2,"calcium entry signal, replicate 1":3.08e7,"calcium entry signal, replicate 2":3.51e7,"resting calcium signal, replicate 1":1.71e7,"resting calcium signal, replicate 2":1.57e7}
{"gene":"cnn","reagent":1,"calcium entry signal, replicate 1":4.05e7,"calcium entry signal, replicate 2":4.43e7,"resting calcium signal, replicate 1":1.90e7,"resting calcium signal, replicate 2":1.87e7}
{"gene":"cnn","reagent":2,"calcium entry signal, replicate 1":3.48e7,"calcium entry signal, replicate 2":3.43e7,"resting calcium signal, replicate 1":1.77e7,"resting calcium signal, replicate 2":1.63e7}
{"gene":"betaTub56D","reagent":1,"calcium entry signal, replicate 1":"2.93e7 (active)","calcium entry signal, replicate 2":2.62e7,"resting calcium signal, replicate 1":1.95e7,"resting calcium signal, replicate 2":1.65e7}
{"gene":"sd","reagent":1,"calcium entry signal, replicate 1":3.30e7,"calcium entry signal, replicate 2":3.03e7,"resting calcium signal, replicate 1":1.63e7,"resting calcium signal, replicate 2":1.27e7}
{"gene":"sd","reagent":2,"calcium entry signal, replicate 1":4.22e7,"calcium entry signal, replicate 2":3.47e7,"resting calcium signal, replicate 1":2.30e7,"resting calcium signal, replicate 2":1.48e7}
{"gene":"fdl","reagent":1,"calcium entry signal, replicate 1":3.42e7,"calcium entry signal, replicate 2":3.46e7,"resting calcium signal, replicate 1":1.75e7,"resting calcium signal, replicate 2":1.72e7}
{"gene":"Sgsh","reagent":1,"calcium entry signal, replicate 1":1.57e7,"calcium entry signal, replicate 2":2.75e7,"resting calcium signal, replicate 1":2.45e7,"resting calcium signal, replicate 2":1.20e7}
{"gene":"Bug22","reagent":1,"calcium entry signal, replicate 1":3.68e7,"calcium entry signal, replicate 2":5.66e7,"resting calcium signal, replicate 1":1.65e7,"resting calcium signal, replicate 2":1.95e7}
{"gene":"kz","reagent":1,"calcium entry signal, replicate 1":2.12e7,"calcium entry signal, replicate 2":2.83e7,"entry to resting ratio":1.8,"resting calcium signal, replicate 1":1.15e7,"resting calcium signal, replicate 2":1.37e7}
{"gene":"CG18809","reagent":1,"calcium entry signal, replicate 1":4.33e7,"calcium entry signal, replicate 2":4.03e7,"resting calcium signal, replicate 1":1.95e7,"resting calcium signal, replicate 2":1.59e7}
{"gene":"Osi22","reagent":1,"calcium entry signal, replicate 1":2.88e7,"calcium entry signal, replicate 2":3.91e7,"resting calcium signal, replicate 1":1.42e7,"resting calcium signal, replicate 2":5.37e7}
{"gene":"Inx6","reagent":1,"calcium entry signal, replicate 1":4.37e7,"calcium entry signal, replicate 2":3.28e7,"resting calcium signal, replicate 1":2.43e7,"resting calcium signal, replicate 2":1.56e7}
{"gene":"gny","reagent":1,"calcium entry signal, replicate 1":4.78e7,"resting calcium signal, replicate 1":2.34e7}
{"gene":"Root","reagent":1,"calcium entry signal, replicate 1":5.41e7,"calcium entry signal, replicate 2":5.25e7,"resting calcium signal, replicate 1":2.54e7,"resting calcium signal, replicate 2":2.06e7}

2 of these entries in another layout.
{"gene": "dlp", "reagent": 1, "calcium entry signal, replicate 1": 3.64e7, "calcium entry signal, replicate 2": 2.27e7, "resting calcium signal, replicate 1": 2.92e7, "resting calcium signal, replicate 2": 1.58e7}
{"gene": "dlp", "reagent": 2, "calcium entry signal, replicate 1": 4.25e7, "calcium entry signal, replicate 2": 5.49e7, "resting calcium signal, replicate 1": 1.82e7, "resting calcium signal, replicate 2": 2.33e7}
